Laboratory results reported in patent US20130084614A1, “METHODS OF REMOVING INHIBITORS FROM CELLULOSIC BIOMASS AND PRODUCING ALCOHOLS” (3M INNOVATIVE PROPERTIES COMPANY, priority 2010, published 2013).

Columns and labels:
[1] = Example 3: single layer flow-through membrane solvent extraction (MSE) of C5 fraction; conditions: 24 hour extraction
[2] = Example 4: multilayer cross-flow MSE of C5 fraction; conditions: 8 hour extraction

| SMILES | g/L in aqueous final ([1]; solvent 1-decanol) | g/L in extractant final ([1]; solvent 1-decanol) | g/L in aqueous final ([1]; solvent dibutyl maleate) | g/L in extractant final ([1]; solvent dibutyl maleate) | g/L in aqueous final ([2]; solvent 1-decanol) | g/L in solvent final ([2]; solvent 1-decanol) | g/L in aqueous final ([2]; solvent 2-octanol) | g/L in solvent final ([2]; solvent 2-octanol) |
| --- | --- | --- | --- | --- | --- | --- | --- | --- |
| O=Cc1ccc(CO)o1 [5-hydroxymethylfurfural] | 1.07 g/L | 0.25 g/L | 0.980 g/L | 0.50 g/L | 0.55 g/L | 0.21 g/L | 0.44 g/L | 0.13 g/L |
| CC(=O)O [acetic acid] | 5.14 g/L | 1.01 g/L | 6.83 g/L | 0.72 g/L | 2.86 g/L | 0.73 g/L | 2.13 g/L | 0.52 g/L |
| O=Cc1ccco1 [furfural] | 0.300 g/L | 0.43 g/L | 0.160 g/L | 0.90 g/L | 0.30 g/L | 0.52 g/L | 0.19 g/L | 0.27 g/L |
| CC(O)C(=O)O (centres unmarked) [lactic acid] | 4.06 g/L | (0.00/0.00) g/L | 4.31 g/L | (0.00/0.00) g/L | 1.35 g/L | 0.04 g/L | 1.44 g/L | 0.02 g/L |
| COc1cc(C=O)ccc1O [vanillin] | 0.001 g/L | 0.06 g/L | 0.005 g/L | 0.09 g/L | 0.12 g/L | 0.42 g/L | – | – |
